The record followed here is PMC11358016.

Amino acid sequences for entries named in this document (tags omitted).
UniProt Q0KL00: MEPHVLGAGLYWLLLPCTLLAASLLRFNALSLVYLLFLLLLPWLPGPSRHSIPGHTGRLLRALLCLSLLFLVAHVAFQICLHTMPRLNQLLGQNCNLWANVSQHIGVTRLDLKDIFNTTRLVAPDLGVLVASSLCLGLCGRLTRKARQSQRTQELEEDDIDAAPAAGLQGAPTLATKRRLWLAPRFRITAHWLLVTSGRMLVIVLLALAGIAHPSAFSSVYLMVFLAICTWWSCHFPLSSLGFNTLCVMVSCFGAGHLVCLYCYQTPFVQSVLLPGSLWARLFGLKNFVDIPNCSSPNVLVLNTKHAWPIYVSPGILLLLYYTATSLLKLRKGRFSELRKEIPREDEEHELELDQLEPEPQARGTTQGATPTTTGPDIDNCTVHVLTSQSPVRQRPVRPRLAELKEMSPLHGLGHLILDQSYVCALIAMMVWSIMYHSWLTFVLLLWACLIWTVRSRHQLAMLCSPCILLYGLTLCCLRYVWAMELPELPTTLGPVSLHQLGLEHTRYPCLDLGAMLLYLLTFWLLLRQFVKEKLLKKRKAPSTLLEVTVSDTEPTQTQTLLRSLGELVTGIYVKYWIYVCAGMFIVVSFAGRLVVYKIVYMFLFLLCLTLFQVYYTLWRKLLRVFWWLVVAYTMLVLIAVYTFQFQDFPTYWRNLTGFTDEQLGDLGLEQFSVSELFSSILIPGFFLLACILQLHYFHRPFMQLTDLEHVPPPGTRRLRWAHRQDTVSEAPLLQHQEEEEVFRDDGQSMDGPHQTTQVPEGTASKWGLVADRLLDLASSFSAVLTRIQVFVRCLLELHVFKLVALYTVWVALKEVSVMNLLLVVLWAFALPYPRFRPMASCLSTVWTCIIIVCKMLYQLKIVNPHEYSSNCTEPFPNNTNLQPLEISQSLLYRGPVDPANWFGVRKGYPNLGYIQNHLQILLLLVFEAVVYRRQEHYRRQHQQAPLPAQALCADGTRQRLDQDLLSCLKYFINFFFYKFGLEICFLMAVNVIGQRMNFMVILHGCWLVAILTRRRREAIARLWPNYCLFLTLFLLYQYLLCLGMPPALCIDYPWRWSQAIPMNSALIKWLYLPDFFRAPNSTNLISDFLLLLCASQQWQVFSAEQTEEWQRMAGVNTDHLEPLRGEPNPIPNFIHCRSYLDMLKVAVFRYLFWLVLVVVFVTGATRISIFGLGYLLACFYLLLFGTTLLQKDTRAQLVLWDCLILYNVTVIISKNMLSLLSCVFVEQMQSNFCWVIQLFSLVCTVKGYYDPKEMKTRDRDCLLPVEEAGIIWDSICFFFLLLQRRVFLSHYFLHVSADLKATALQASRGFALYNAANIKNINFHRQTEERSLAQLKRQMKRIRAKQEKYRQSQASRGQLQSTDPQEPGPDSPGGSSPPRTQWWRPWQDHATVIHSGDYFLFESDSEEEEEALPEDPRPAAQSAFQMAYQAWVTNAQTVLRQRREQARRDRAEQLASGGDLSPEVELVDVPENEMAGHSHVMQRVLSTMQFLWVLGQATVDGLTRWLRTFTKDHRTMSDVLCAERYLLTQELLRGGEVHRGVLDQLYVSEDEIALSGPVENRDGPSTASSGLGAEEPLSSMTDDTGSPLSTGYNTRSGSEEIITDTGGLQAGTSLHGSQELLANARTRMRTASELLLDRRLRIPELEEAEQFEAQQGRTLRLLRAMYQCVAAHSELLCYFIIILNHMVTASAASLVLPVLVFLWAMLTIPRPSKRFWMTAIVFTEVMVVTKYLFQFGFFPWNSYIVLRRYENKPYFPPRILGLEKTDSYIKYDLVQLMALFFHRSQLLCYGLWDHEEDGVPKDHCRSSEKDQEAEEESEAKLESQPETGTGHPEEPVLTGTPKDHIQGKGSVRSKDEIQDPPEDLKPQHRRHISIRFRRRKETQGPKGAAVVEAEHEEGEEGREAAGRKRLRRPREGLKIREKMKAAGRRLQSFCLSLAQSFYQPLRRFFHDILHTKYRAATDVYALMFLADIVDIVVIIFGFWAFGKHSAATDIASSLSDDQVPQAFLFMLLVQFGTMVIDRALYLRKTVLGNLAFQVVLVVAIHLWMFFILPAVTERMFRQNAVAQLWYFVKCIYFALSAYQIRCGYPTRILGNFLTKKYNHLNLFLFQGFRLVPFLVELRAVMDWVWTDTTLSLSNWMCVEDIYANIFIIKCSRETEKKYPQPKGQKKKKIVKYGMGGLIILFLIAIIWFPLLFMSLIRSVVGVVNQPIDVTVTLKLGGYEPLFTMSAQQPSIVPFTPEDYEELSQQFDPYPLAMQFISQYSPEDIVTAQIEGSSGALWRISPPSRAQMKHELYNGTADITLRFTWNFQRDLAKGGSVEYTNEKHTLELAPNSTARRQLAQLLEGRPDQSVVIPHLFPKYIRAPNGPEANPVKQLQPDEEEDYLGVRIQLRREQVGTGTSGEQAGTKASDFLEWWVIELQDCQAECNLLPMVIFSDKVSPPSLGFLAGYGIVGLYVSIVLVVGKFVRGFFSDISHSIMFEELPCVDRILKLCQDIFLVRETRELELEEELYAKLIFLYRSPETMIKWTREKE
UniProt Q9ESQ5: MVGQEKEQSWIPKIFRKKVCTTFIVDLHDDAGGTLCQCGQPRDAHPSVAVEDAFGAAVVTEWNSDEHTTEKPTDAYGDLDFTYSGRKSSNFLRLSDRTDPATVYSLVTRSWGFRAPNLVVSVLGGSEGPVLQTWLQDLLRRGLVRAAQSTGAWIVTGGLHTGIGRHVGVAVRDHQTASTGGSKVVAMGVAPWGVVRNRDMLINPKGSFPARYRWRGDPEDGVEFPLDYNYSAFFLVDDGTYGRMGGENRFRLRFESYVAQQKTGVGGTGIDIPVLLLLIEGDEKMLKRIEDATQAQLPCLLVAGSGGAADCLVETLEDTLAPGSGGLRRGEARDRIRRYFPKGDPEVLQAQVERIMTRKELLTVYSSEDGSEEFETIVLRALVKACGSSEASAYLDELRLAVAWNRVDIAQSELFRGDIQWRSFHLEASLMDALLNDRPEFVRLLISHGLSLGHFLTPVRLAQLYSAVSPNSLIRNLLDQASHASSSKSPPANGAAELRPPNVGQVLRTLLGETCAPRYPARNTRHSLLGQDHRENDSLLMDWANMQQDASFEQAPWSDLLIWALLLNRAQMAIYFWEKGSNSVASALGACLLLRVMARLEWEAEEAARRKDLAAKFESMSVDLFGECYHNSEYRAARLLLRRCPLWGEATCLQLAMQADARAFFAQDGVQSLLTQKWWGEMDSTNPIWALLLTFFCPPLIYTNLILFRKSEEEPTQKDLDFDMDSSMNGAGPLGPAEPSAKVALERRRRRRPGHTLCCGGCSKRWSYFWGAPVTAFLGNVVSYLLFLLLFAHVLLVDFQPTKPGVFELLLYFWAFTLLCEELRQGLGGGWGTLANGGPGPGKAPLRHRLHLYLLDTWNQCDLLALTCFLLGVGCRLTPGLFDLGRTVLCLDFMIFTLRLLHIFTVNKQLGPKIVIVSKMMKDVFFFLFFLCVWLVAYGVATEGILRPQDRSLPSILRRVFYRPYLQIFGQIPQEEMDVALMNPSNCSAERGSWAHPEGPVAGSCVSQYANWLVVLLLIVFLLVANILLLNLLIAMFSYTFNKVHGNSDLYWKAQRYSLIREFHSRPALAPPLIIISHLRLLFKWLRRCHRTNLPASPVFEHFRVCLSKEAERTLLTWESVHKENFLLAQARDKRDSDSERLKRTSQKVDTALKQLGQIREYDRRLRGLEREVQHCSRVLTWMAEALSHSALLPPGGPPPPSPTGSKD

These are yes or no findings as the source states them, for the method shown. Binding seen in cells or lysates may run through a third protein. Some entries that bind do so weakly or less than the wild type.

The target in the experiment is Piezo1 mechanosensitive ion channel (rat (endogenous in H9c2)) (UniProt Q0KL00). Kind of experiment: co-IP; H9c2 cells lysed in 25 mM NaPIPES pH 7.2, 140 mM NaCl, 1 mM EDTA, 1% CHAPS, 0.5% phosphatidylcholine, 2 mM dithiothreitol; pre-cleared with protein G Dynabeads; anti-Piezo1 antibody or rabbit IgG at 4 °C overnight; western blot with anti-TRPM4. For orientation: A western blot detects proteins with antibodies after separation by electrophoresis.

With “transient receptor potential melastatin 4 (TRPM4) ion channel (from UniProt Q9ESQ5 1-1208)”, the binding entry is recorded as “binds”.
